Laboratory results taken from US20160355789A1.
These are yes or no findings as the source states them, for the method shown. Some entries that bind do so weakly or less than the wild type.

Sequences of proteins named here, by UniProt entry; tags and fusion partners are left off. Residues count along the entry.
UniProt Q9P296: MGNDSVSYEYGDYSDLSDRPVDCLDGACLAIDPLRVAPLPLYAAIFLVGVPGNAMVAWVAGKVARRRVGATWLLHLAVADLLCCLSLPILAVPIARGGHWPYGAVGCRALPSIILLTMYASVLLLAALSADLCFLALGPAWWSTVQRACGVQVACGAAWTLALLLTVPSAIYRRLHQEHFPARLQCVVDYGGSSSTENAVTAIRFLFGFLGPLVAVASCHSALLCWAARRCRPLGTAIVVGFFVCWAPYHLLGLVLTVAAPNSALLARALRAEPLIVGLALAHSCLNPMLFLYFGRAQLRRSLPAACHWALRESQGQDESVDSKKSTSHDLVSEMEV
UniProt P01031, residues 678-751: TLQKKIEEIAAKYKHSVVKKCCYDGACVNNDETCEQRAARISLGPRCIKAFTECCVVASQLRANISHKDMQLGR

Key:
[1] = molecular target: full-length human GPR77 with C-terminal V5 epitope tag, expressed from the gB locus (gB:GPR77 virus / virions) (human) (UniProt Q9P296); test: labeled ligand probed on the VirD Array
[2] = molecular target: full-length human GPR77 with C-terminal V5 epitope tag, expressed from the gB locus (gB:GPR77 virus / virions) (human) (UniProt Q9P296); test: Cy5-labeled C5a at 1 µM probed on the VirD Array

complement anaphylatoxin C5a, Cy5-labeled (Abcam) (from UniProt P01031 678-751) (ligand)
binding [1]: binds
binding [2]: binds
